Measurements as given in publication PMC10375191 (Advanced Science, 2023).

Assay: general procedure: Fmoc solid-phase peptide synthesis; Rink amide MBHA resin, Wang resin; DIC/HOBt
Details: conjugation step, analytical HPLC

H-PLGVRGRHYNNPIWRQRY-NH2
final HPLC purity: above 95%
